Assay results published in the supplement of paper PMC10849652.
Some of the results follow.

Amino acid sequences for entries named in this document (tags omitted). A change or cut given only in a name is not applied to a line headed by its entry.
UniProt P50053: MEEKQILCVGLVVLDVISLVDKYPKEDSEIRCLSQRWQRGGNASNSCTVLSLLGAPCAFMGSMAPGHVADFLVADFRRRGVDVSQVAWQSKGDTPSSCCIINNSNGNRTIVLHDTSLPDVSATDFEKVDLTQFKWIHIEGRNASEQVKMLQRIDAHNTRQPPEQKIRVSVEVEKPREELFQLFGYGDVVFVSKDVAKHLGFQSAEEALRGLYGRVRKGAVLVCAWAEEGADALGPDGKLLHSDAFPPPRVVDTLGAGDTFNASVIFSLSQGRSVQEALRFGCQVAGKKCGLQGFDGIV
UniProt Q8IYS2: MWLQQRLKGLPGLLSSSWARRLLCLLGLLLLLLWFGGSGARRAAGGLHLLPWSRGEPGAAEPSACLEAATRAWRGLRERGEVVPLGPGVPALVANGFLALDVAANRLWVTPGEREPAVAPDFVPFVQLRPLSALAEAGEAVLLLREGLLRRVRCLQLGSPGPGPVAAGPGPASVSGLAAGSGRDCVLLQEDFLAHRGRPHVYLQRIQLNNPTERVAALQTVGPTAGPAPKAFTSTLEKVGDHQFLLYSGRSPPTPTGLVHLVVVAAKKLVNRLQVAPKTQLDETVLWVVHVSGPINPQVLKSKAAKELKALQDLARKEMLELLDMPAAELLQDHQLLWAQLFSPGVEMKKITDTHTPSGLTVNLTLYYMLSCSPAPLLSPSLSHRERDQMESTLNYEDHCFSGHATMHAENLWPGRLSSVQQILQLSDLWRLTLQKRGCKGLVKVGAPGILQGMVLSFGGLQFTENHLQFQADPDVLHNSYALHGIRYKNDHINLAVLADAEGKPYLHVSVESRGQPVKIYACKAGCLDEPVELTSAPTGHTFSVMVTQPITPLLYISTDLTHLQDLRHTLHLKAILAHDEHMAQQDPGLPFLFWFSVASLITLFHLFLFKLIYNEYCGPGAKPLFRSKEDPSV
UniProt Q6PID8: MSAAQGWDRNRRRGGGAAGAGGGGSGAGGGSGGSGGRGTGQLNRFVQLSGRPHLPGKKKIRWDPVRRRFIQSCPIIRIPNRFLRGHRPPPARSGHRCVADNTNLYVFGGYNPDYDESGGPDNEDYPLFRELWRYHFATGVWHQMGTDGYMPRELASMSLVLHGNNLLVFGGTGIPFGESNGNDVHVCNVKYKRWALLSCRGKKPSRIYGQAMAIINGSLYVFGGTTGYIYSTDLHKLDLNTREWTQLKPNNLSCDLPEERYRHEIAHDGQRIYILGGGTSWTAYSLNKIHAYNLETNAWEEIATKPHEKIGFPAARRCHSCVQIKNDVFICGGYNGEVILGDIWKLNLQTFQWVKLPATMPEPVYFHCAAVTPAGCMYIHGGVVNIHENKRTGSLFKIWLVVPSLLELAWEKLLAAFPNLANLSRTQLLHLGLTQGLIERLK
UniProt Q96EM0: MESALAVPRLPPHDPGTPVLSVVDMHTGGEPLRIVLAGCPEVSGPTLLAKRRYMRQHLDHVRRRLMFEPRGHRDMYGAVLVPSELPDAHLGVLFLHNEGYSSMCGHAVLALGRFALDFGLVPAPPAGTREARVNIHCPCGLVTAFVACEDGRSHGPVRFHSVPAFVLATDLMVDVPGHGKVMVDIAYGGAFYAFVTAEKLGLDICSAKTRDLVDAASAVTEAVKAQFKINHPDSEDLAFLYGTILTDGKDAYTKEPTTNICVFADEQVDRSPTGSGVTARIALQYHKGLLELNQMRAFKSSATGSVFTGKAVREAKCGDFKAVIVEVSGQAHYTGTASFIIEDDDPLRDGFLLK
UniProt Q96EK9: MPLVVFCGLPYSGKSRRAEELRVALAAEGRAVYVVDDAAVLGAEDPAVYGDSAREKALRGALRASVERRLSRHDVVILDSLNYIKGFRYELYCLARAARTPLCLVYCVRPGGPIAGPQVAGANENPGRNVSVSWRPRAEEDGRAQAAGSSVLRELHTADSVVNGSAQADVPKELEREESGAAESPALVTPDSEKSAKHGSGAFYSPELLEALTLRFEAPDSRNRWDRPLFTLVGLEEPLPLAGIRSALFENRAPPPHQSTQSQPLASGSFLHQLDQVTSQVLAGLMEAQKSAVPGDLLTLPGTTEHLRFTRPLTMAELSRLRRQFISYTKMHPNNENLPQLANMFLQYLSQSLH
UniProt Q14667: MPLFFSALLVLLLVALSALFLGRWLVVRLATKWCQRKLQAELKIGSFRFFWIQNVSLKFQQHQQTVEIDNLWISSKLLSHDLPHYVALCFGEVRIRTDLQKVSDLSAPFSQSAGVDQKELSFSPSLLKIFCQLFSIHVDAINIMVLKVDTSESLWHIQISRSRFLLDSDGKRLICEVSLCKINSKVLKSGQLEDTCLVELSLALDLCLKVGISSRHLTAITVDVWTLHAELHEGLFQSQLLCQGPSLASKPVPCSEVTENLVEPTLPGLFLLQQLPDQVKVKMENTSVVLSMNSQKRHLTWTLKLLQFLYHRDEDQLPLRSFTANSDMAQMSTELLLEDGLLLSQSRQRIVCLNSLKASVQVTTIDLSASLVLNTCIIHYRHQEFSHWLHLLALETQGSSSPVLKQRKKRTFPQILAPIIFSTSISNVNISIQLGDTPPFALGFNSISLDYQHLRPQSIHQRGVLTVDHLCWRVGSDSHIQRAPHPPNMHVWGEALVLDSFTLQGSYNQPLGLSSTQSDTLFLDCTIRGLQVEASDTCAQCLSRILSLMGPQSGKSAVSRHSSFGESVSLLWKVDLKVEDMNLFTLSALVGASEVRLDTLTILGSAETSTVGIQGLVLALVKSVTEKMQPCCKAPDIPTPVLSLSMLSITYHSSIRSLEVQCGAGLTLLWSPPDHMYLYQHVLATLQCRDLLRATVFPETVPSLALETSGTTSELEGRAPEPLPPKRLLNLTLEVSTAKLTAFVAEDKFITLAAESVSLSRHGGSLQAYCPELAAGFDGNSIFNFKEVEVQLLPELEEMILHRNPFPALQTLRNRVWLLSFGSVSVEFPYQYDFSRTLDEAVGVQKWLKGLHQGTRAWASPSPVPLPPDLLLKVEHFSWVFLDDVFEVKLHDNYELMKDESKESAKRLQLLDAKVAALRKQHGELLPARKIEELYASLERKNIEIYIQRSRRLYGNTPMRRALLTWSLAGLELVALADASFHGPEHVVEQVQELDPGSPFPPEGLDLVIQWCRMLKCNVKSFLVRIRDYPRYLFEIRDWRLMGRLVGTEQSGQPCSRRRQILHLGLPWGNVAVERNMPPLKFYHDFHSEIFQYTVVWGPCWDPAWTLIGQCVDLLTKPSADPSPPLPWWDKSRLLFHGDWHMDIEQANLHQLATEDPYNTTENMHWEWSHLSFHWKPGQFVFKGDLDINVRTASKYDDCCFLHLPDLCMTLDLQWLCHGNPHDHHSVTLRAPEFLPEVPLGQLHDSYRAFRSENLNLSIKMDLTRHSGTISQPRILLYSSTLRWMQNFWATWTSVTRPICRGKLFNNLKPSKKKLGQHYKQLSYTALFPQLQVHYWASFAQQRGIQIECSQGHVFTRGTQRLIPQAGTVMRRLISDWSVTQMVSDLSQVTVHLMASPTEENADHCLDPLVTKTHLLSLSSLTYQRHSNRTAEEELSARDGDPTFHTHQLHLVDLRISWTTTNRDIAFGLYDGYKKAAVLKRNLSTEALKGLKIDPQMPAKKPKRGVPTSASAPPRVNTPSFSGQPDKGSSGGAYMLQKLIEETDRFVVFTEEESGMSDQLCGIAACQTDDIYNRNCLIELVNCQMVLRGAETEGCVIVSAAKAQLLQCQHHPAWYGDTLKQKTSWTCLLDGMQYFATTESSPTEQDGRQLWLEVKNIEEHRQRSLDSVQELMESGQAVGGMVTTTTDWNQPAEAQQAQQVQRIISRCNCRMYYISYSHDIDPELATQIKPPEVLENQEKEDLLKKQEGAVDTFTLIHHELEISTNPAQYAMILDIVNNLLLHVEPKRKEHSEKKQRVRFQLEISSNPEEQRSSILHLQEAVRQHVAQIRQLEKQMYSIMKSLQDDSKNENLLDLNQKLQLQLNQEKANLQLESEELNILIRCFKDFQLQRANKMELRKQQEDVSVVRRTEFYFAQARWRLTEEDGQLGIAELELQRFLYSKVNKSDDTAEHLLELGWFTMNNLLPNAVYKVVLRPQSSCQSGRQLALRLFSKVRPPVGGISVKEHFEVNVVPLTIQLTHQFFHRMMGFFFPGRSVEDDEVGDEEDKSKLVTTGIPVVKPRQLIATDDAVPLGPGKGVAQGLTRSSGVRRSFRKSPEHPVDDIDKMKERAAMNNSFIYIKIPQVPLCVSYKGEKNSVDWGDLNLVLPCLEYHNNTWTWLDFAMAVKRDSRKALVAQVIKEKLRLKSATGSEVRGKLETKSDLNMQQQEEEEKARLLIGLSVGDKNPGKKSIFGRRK
UniProt Q9BXK1: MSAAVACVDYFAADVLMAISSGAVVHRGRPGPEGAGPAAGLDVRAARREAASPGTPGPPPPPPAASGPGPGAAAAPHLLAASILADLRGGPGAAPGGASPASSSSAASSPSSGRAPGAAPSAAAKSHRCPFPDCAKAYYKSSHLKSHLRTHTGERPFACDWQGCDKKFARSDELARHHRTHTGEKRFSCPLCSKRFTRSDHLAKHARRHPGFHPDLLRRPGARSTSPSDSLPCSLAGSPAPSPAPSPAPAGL
UniProt Q9Y664: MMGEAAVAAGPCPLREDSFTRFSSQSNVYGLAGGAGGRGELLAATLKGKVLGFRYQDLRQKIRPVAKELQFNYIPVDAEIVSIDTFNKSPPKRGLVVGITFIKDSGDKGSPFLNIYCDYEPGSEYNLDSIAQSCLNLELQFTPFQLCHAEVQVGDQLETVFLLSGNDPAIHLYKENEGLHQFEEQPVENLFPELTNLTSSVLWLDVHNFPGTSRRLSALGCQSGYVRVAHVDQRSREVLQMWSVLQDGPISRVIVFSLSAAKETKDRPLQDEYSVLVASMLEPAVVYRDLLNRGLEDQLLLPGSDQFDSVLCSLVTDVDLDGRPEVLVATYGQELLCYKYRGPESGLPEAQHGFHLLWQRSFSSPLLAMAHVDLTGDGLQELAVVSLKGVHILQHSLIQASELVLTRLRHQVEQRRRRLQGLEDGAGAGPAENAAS
UniProt Q9Y2Q5, whole entry, looked up: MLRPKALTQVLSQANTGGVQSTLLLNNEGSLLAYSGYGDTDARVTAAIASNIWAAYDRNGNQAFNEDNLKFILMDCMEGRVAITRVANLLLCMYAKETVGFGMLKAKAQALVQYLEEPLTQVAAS
UniProt Q8IVT5: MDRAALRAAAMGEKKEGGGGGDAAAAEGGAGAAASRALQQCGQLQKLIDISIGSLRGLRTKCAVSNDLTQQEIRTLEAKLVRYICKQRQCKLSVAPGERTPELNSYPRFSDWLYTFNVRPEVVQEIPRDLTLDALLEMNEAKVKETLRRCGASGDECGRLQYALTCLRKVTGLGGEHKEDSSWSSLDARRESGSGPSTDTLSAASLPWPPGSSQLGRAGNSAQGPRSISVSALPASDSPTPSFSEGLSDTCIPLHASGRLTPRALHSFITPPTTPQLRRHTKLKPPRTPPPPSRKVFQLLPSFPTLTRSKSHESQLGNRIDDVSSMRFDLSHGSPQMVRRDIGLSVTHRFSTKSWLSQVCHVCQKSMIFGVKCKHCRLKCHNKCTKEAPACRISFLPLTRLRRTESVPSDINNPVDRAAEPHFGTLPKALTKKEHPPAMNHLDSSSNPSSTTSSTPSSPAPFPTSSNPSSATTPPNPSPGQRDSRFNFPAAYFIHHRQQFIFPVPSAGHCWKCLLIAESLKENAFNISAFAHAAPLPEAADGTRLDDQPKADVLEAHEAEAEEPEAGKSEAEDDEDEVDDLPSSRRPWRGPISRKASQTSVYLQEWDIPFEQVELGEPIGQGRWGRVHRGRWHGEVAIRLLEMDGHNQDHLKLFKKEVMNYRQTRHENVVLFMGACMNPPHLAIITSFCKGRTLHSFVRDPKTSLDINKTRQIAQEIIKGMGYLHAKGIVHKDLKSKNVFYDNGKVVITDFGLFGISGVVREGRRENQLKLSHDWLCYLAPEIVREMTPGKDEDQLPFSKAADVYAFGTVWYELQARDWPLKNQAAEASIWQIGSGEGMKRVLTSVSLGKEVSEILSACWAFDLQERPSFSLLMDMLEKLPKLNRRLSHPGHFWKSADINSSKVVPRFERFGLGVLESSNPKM
UniProt O43813, whole entry, looked up: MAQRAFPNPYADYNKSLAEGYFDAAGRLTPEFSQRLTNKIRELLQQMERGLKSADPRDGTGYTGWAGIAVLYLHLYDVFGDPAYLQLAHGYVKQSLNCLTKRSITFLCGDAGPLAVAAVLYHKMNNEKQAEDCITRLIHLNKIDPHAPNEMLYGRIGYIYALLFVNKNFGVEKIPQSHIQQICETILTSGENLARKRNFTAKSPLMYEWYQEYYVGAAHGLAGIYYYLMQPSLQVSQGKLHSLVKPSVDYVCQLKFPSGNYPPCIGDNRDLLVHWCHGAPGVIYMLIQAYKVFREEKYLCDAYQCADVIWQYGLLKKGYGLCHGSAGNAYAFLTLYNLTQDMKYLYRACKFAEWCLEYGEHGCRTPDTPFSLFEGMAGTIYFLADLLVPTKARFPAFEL

How the values were obtained:
Assay in all cases: log2 fold change, soluble protein after heating vs DMSO (PISA); higher = thermal stabilisation; K562 lysate, 10 uM; active = over 0.2 and 3.5 SD of the protein, either way, in both replicates (recomputed)
[1] = compound: C1=CC=C(C=C1)[C@H](COC2=CC3=C(C=C2)NC(=O)N3)NC(=O)C4=CC=CN(C4=O)CC5=CC(=C(C=C5)F)F
Outline: (§1)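 Quantification was by TMTpro 16plex LC-MS/MS with equalised channel sums, applied to the supernatant after 21,000xg for 90 min. Samples were crude K562 extract at 1 mg/mL protein in PBS pH 7.4 with 1 mM MgCl2, treated with 10 μM compound for 30 min, heated for 3 min across 48°C-58°C, pooled and brought to 0.5% NP-40 at 4°C. Values are log-two fold changes in thermal stability relative to solvent controls, from duplicates.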

[2] = compound: CC1=C(SC2=C1C(=N[C@H](C3=NN=C(N32)C)CC(=O)N)C4=CC=C(C=C4)Cl)C
Outline: as §1

[3] = compound: CC1=C2C(=CC=C1)N=C(N(C2=O)C3=CC=CC=C3C)CN4C=NC5=C(N=CN=C54)N
Outline: as §1

[4] = compound: Cc1sc2c(c1C)C(c1ccc(Cl)cc1)=N[C@@H](CC(=O)OC(C)(C)C)c1nnc(C)n1-2
Outline: as §1

[5] = compound: c1ccc([C@@H]2C[C@H]2NC2CCNCC2)cc1
Outline: as §1

## LAMP2 (UniProt P13473)
[1]
  log2 fold change: inactive: -0.021
[2]
  log2 fold change: inactive: 0.063
[3]
  log2 fold change: inactive: -0.034
[4]
  log2 fold change: inactive: 0.017
[5]
  log2 fold change: inactive: -0.035

## KHK isoform 2 (UniProt P50053)
[1]
  log2 fold change: inactive: -0.01
[2]
  log2 fold change: inactive: 0.034
[3]
  log2 fold change: inactive: -0.003
[4]
  log2 fold change: inactive: -0.137
[5]
  log2 fold change: inactive: 0.142

## KIAA2013 (UniProt Q8IYS2)
[1]
  log2 fold change: inactive: 0.077
[2]
  log2 fold change: inactive: -0.016
[3]
  log2 fold change: inactive: 0.046
[4]
  log2 fold change: inactive: 0.054
[5]
  log2 fold change: inactive: -0.021

## LAP3 (UniProt P28838)
[1]
  log2 fold change: inactive: -0.043
[2]
  log2 fold change: inactive: 0.021
[3]
  log2 fold change: inactive: -0.139
[4]
  log2 fold change: inactive: -0.056
[5]
  log2 fold change: inactive: -0.285

## KIF2C (UniProt Q99661)
[1]
  log2 fold change: inactive: -0.022
[2]
  log2 fold change: inactive: -0.023
[3]
  log2 fold change: inactive: -0.009
[4]
  log2 fold change: inactive: 0.052
[5]
  log2 fold change: inactive: 0.032

## KIAA1324L (UniProt A8MWY0)
[1]
  log2 fold change: inactive: 0.052
[2]
  log2 fold change: inactive: -0.021
[3]
  log2 fold change: inactive: -0.089
[4]
  log2 fold change: inactive: -0.054
[5]
  log2 fold change: inactive: -0.066

## KLHDC10 (UniProt Q6PID8)
[1]
  log2 fold change: inactive: -0.051
[2]
  log2 fold change: inactive: 0.119
[3]
  log2 fold change: inactive: 0.067
[4]
  log2 fold change: inactive: -0.049
[5]
  log2 fold change: inactive: -0.089

## L3HYPDH (UniProt Q96EM0)
[1]
  log2 fold change: inactive: -0.022
[2]
  log2 fold change: inactive: 0.042
[3]
  log2 fold change: inactive: 0.003
[4]
  log2 fold change: inactive: -0.014
[5]
  log2 fold change: inactive: 0.01

## KIF4A (UniProt O95239)
[1]
  log2 fold change: inactive: -0.042
[2]
  log2 fold change: inactive: 0.012
[3]
  log2 fold change: inactive: 0.035
[4]
  log2 fold change: inactive: 0.06
[5]
  log2 fold change: inactive: 0.005

## KHDC4 (UniProt Q7Z7F0)
[1]
  log2 fold change: inactive: -0.026
[2]
  log2 fold change: inactive: 0.011
[3]
  log2 fold change: inactive: -0.027
[4]
  log2 fold change: inactive: 0.007
[5]
  log2 fold change: inactive: -0.042

## KRR1 (UniProt Q13601)
[1]
  log2 fold change: inactive: 0.019
[2]
  log2 fold change: inactive: -0.017
[3]
  log2 fold change: inactive: 0.005
[4]
  log2 fold change: inactive: 0.062
[5]
  log2 fold change: inactive: 0.035

## KIF23 isoform 2 (UniProt Q02241)
[1]
  log2 fold change: inactive: 0.032
[2]
  log2 fold change: inactive: 0.044
[3]
  log2 fold change: inactive: 0.038
[4]
  log2 fold change: inactive: -0.013
[5]
  log2 fold change: inactive: 0.045

## KPNA1 (UniProt P52294)
[1]
  log2 fold change: inactive: -0.001
[2]
  log2 fold change: inactive: 0.042
[3]
  log2 fold change: inactive: 0.024
[4]
  log2 fold change: inactive: -0.013
[5]
  log2 fold change: inactive: -0.016

## KTI12 (UniProt Q96EK9)
[1]
  log2 fold change: inactive: -0.023
[2]
  log2 fold change: inactive: -0.015
[3]
  log2 fold change: inactive: 0.006
[4]
  log2 fold change: inactive: -0.133
[5]
  log2 fold change: inactive: -0.007

## KIAA0100 (UniProt Q14667)
[1]
  log2 fold change: inactive: -0.054
[2]
  log2 fold change: inactive: 0.074
[3]
  log2 fold change: inactive: 0.179
[4]
  log2 fold change: inactive: -0.172
[5]
  log2 fold change: inactive: -0.063

## KLF16 (UniProt Q9BXK1)
[1]
  log2 fold change: inactive: -0.011
[2]
  log2 fold change: inactive: -0.072
[3]
  log2 fold change: inactive: 0.021
[4]
  log2 fold change: inactive: 0.041
[5]
  log2 fold change: inactive: -0.208

## KPTN (UniProt Q9Y664)
[1]
  log2 fold change: inactive: 0.037
[2]
  log2 fold change: inactive: 0.099
[3]
  log2 fold change: inactive: -0.033
[4]
  log2 fold change: inactive: -0.048
[5]
  log2 fold change: inactive: -0.027

## LAMTOR2 (UniProt Q9Y2Q5)
[1]
  log2 fold change: inactive: -0.085
[2]
  log2 fold change: inactive: -0.137
[3]
  log2 fold change: inactive: 0.055
[4]
  log2 fold change: inactive: -0.023
[5]
  log2 fold change: inactive: -0.159

## KSR1 (UniProt Q8IVT5)
[1]
  log2 fold change: inactive: -0.081
[2]
  log2 fold change: inactive: -0.024
[3]
  log2 fold change: inactive: 0.035
[4]
  log2 fold change: inactive: 0.035
[5]
  log2 fold change: active: 0.242

## KYAT3 (UniProt Q6YP21)
[1]
  log2 fold change: inactive: 0.015
[2]
  log2 fold change: inactive: -0.015
[3]
  log2 fold change: inactive: 0.005
[4]
  log2 fold change: inactive: -0.026
[5]
  log2 fold change: inactive: -0.074

## LARP4 isoform 4 (UniProt Q71RC2)
[1]
  log2 fold change: inactive: 0
[2]
  log2 fold change: inactive: 0.006
[3]
  log2 fold change: inactive: -0.025
[4]
  log2 fold change: inactive: 0.028
[5]
  log2 fold change: inactive: 0

## KYAT1 (UniProt Q16773)
[1]
  log2 fold change: inactive: 0.035
[2]
  log2 fold change: inactive: 0.026
[3]
  log2 fold change: inactive: 0.028
[4]
  log2 fold change: inactive: -0.02
[5]
  log2 fold change: inactive: -0.018

## LANCL1 (UniProt O43813)
[1]
  log2 fold change: inactive: 0.011
[2]
  log2 fold change: inactive: 0.004
[3]
  log2 fold change: inactive: -0.007
[4]
  log2 fold change: inactive: 0.026
[5]
  log2 fold change: inactive: -0.045

## LANCL3 (UniProt Q6ZV70)
[1]
  log2 fold change: inactive: 0.009
[2]
  log2 fold change: inactive: 0.083
[3]
  log2 fold change: inactive: -0.017
[5]
  log2 fold change: inactive: -0.073
